Measurements as given in patent publication US6602854B1, “Branched multimeric Apo A-I agonist compounds” (priority 1997, dated 2003).

Tested on: isolated human HDL
Assay: Formation of pre-β like particles: displacement of human ApoA-I from isolated human HDL
Format: binding
Experimental: Human HDL was isolated by KBr density ultra centrifugation at density d=1.21 g/ml to obtain top fraction followed by Superose 6 gel filtration chromatography to separate HDL from other lipoproteins. Isolated HDL was adjusted to a final concentration of 1.0 mg/ml with physiological saline based on protein content determined by Bradford protein assay. An aliquot of 300 μl was removed from the isolated HDL preparation and incubated with 100 μl ^14C-labeled peptide 4 (0.2-1.0 μg/μl) for two hours at 37° C. Five separate incubations were analyzed including a blank containing 100 μl physiological saline and four dilutions of ^14C-labeled peptide 4: (i) 0.20 μg/μl peptide:HDL ratio=1:15; (ii) 0.30 μg/μl peptide:HDL ratio=1:10; (iii) […] peptide:HDL ratio=1:5; and (iv) 1.00 μg/μl peptide:HDL ratio=1:3. Following the two hour incubation, a 200 μl aliquot of the sample (total volume=400 μl) was loaded onto a Superose 6 gel filtration column for lipoprotein separation and analysis, and 100 μl was used to determine total radioactivity loaded. The conditions for all FPLC chromatographies were as described in Section 9.4, infra.

PVLDLFRELLNELLEALKQKLK [peptide 4]
14C Peak #1 (P:LP = 1:3): 43,495 cpm | 14C Peak #3 (P:LP = 1:3): 7,832 cpm | 14C column (P:LP = 1:3): 51,321 cpm | AUC Peak #1 (P:LP = 1:3): 7.93 | AUC Peak #2 (P:LP = 1:3): 1.97 | EV Peak #1 (P:LP = 1:3): 30.6 mL | EV Peak #2 (P:LP = 1:3): 34.3 mL | 14C Peak #1 (P:LP = 1:5): 20,768 cpm | 14C Peak #3 (P:LP = 1:5): 5,281 cpm | 14C column (P:LP = 1:5): 26,049 cpm | AUC Peak #1 (P:LP = 1:5): 8.19 | AUC Peak #2 (P:LP = 1:5): 1.53 | EV Peak #1 (P:LP = 1:5): 30.8 mL | EV Peak #2 (P:LP = 1:5): 34.3 mL | AUC Peak #1 (P:LP = 1:10): 8.42 | AUC Peak #2 (P:LP = 1:10): 0.67 | EV Peak #1 (P:LP = 1:10): 30.7 mL | EV Peak #2 (P:LP = 1:10): 33.0 mL | 14C Peak #1 (P:LP = 1:15): 7,920 cpm | 14C Peak #3 (P:LP = 1:15): 1,622 cpm | 14C column (P:LP = 1:15): 9,542 cpm | AUC Peak #1 1a (P:LP = 1:15): 4.09 | AUC Peak #1 1b (P:LP = 1:15): 6.26 | EV Peak #1 1a (P:LP = 1:15): 29.4 mL | EV Peak #1 1b (P:LP = 1:15): 30.9 mL
